PubChem BioAssay AID1159584 – Peter MacCallum Cancer Centre | 2016
In all, the deposit lists about 18,000 reagents; shown is an unselected part. Not all columns of the deposit are shown. Not given: the amount of reagent, the time to read-out.

Purpose: 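Genes that CDH1-null MCF10A cells selectively depend on to survive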 (primary screen)
System: human MCF10A breast epithelial cells, parental and CDH1-null
Reagents: siRNA against human genes
Measurement: 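ATP luminescence (CellTiter-Glo) viability per line relative to mean mock wells over all plates, and the ratio of CDH1-null to parental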
Direction: CDH1-null / parental viability ratio: higher = CDH1-null cells survive relatively better than parental

GPR119 (G protein-coupled receptor 119) [SID135621014]: CDH1-null / parental viability ratio = 1.47
SHC2 (SHC adaptor protein 2) [SID152154987]: CDH1-null / parental viability ratio = 0.96
HYOU1 (hypoxia up-regulated 1) [SID135620721]: CDH1-null / parental viability ratio = 0.98
C5 (complement C5) [SID134312759]: CDH1-null / parental viability ratio = 0.96
C14orf39 (chromosome 14 open reading frame 39) [SID134321833]: CDH1-null / parental viability ratio = 1.12
THAP9 (THAP domain containing 9) [SID152152396]: CDH1-null / parental viability ratio = 1.02
TUBGCP5 (tubulin gamma complex component 5) [SID152149736]: CDH1-null / parental viability ratio = 1.04
COMMD2 (COMM domain containing 2) [SID134324643]: CDH1-null / parental viability ratio = 0.83
C12orf71 (chromosome 12 open reading frame 71) [SID135625698]: CDH1-null / parental viability ratio = 0.73
ZFTRAF1 (zinc finger TRAF-type and ring finger containing 1) [SID134319038]: CDH1-null / parental viability ratio = 1.03
SCG2 (secretogranin II) [SID152153279]: CDH1-null / parental viability ratio = 1.04
KCNH3 (potassium voltage-gated channel subfamily H member 3) [SID134315199]: CDH1-null / parental viability ratio = 1.25
NOLC1 (nucleolar and coiled-body phosphoprotein 1) [SID152149439]: CDH1-null / parental viability ratio = 1.87
UBE2V2 (ubiquitin conjugating enzyme E2 V2) [SID134313676]: CDH1-null / parental viability ratio = 1.07
MCTP1 (multiple C2 and transmembrane domain containing 1) [SID152147334]: CDH1-null / parental viability ratio = 1.09
UBE3C (ubiquitin protein ligase E3C) [SID135621337]: CDH1-null / parental viability ratio = 1.04
FOXD3 (forkhead box D3) [SID152149341]: CDH1-null / parental viability ratio = 1.06
RHOT1 (ras homolog family member T1) [SID152150756]: CDH1-null / parental viability ratio = 1.18
LGALS12 (galectin 12) [SID134315176]: CDH1-null / parental viability ratio = 1.05
PACC1 (proton activated chloride channel 1) [SID152148043]: CDH1-null / parental viability ratio = 0.95
TRIM13 (tripartite motif containing 13) [SID134312050]: CDH1-null / parental viability ratio = 0.91
TOR1A (torsin family 1 member A) [SID152151445]: CDH1-null / parental viability ratio = 1
ORC3 (origin recognition complex subunit 3) [SID56478627]: CDH1-null / parental viability ratio = 1.02
POLM (DNA polymerase mu) [SID134314686]: CDH1-null / parental viability ratio = 1.09
ZNF254 (zinc finger protein 254) [SID135623861]: CDH1-null / parental viability ratio = 0.78
AQP9 (aquaporin 9) [SID152152107]: CDH1-null / parental viability ratio = 1.07
FLNC (filamin C) [SID152147195]: CDH1-null / parental viability ratio = 0.9

Ordered by “CDH1-null / parental viability ratio” (descending): some entries from above
NOLC1 (nucleolar and coiled-body phosphoprotein 1) [SID152149439]: CDH1-null / parental viability ratio = 1.87
KCNH3 (potassium voltage-gated channel subfamily H member 3) [SID134315199]: CDH1-null / parental viability ratio = 1.25
TUBGCP5 (tubulin gamma complex component 5) [SID152149736]: CDH1-null / parental viability ratio = 1.04
SCG2 (secretogranin II) [SID152153279]: CDH1-null / parental viability ratio = 1.04
ZFTRAF1 (zinc finger TRAF-type and ring finger containing 1) [SID134319038]: CDH1-null / parental viability ratio = 1.03
COMMD2 (COMM domain containing 2) [SID134324643]: CDH1-null / parental viability ratio = 0.83
C12orf71 (chromosome 12 open reading frame 71) [SID135625698]: CDH1-null / parental viability ratio = 0.73

Continued:
MASP1 (MBL associated serine protease 1) [SID135621110]: CDH1-null / parental viability ratio = 1.05
JPH3 (junctophilin 3) [SID134317408]: CDH1-null / parental viability ratio = 1.08
PPP1R9A (protein phosphatase 1 regulatory subunit 9A) [SID152148633]: CDH1-null / parental viability ratio = 0.74
DNAH6 (dynein axonemal heavy chain 6) [SID134322073]: CDH1-null / parental viability ratio = 1.14
NPM3 (nucleophosmin/nucleoplasmin 3) [SID134316624]: CDH1-null / parental viability ratio = 1.25
TTC16 (tetratricopeptide repeat domain 16) [SID134320996]: CDH1-null / parental viability ratio = 1.04
ETNK2 (ethanolamine kinase 2) [SID56478982]: CDH1-null / parental viability ratio = 0.98
CERS2 (ceramide synthase 2) [SID152151352]: CDH1-null / parental viability ratio = 0.99
CNTN2 (contactin 2) [SID134316315]: CDH1-null / parental viability ratio = 1.01
TRIB2 (tribbles pseudokinase 2) [SID56479059]: CDH1-null / parental viability ratio = 0.86
MMS22L (MMS22 like, DNA repair protein) [SID135624653]: CDH1-null / parental viability ratio = 1.08
CYC1 (cytochrome c1) [SID152155804]: CDH1-null / parental viability ratio = 0.99
METTL22 (methyltransferase 22, Kin17 lysine) [SID152148060]: CDH1-null / parental viability ratio = 1.02
SLFN11 (schlafen family member 11) [SID134320743]: CDH1-null / parental viability ratio = 1.02
FZD2 (frizzled class receptor 2) [SID134310944]: CDH1-null / parental viability ratio = 1.28
TMEM190 (transmembrane protein 190) [SID134320840]: CDH1-null / parental viability ratio = 1.36
NOG (noggin) [SID134316357]: CDH1-null / parental viability ratio = 1.13
WDR45 (WD repeat domain 45) [SID152151488]: CDH1-null / parental viability ratio = 1.36
